# Reference: article PMC6336796
# By UniProt entry, the sequences of proteins in these tests, tags left out. Where a name states a change or a piece, a line headed by the entry shows the natural chain unless it says otherwise.
# UniProt Q96EP0: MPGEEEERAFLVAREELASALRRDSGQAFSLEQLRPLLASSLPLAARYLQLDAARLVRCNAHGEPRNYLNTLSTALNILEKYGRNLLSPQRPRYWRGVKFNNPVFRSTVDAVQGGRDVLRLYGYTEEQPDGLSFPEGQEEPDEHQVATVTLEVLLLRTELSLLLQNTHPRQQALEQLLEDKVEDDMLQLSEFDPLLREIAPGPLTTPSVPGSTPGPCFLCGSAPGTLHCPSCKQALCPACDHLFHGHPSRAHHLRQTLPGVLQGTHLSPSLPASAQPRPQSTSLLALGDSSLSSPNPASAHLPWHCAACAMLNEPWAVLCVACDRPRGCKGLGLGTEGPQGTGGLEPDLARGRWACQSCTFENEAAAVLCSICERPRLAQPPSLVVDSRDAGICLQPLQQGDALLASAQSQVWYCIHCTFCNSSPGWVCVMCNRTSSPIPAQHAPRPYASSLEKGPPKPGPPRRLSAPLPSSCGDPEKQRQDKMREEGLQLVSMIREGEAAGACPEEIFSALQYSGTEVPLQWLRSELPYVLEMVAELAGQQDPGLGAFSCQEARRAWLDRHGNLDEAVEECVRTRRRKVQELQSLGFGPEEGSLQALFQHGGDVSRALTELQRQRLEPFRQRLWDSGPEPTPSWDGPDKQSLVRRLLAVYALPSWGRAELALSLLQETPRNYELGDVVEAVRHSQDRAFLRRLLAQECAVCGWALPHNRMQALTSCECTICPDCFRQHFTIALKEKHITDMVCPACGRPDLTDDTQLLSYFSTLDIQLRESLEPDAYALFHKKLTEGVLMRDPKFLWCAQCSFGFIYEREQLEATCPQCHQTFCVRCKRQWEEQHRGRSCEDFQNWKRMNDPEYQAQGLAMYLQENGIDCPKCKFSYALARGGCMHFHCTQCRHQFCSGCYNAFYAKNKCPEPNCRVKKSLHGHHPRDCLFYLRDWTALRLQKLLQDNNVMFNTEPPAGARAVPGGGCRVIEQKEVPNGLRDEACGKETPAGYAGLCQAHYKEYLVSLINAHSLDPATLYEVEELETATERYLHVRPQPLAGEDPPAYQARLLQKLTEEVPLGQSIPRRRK
# UniProt Q02224: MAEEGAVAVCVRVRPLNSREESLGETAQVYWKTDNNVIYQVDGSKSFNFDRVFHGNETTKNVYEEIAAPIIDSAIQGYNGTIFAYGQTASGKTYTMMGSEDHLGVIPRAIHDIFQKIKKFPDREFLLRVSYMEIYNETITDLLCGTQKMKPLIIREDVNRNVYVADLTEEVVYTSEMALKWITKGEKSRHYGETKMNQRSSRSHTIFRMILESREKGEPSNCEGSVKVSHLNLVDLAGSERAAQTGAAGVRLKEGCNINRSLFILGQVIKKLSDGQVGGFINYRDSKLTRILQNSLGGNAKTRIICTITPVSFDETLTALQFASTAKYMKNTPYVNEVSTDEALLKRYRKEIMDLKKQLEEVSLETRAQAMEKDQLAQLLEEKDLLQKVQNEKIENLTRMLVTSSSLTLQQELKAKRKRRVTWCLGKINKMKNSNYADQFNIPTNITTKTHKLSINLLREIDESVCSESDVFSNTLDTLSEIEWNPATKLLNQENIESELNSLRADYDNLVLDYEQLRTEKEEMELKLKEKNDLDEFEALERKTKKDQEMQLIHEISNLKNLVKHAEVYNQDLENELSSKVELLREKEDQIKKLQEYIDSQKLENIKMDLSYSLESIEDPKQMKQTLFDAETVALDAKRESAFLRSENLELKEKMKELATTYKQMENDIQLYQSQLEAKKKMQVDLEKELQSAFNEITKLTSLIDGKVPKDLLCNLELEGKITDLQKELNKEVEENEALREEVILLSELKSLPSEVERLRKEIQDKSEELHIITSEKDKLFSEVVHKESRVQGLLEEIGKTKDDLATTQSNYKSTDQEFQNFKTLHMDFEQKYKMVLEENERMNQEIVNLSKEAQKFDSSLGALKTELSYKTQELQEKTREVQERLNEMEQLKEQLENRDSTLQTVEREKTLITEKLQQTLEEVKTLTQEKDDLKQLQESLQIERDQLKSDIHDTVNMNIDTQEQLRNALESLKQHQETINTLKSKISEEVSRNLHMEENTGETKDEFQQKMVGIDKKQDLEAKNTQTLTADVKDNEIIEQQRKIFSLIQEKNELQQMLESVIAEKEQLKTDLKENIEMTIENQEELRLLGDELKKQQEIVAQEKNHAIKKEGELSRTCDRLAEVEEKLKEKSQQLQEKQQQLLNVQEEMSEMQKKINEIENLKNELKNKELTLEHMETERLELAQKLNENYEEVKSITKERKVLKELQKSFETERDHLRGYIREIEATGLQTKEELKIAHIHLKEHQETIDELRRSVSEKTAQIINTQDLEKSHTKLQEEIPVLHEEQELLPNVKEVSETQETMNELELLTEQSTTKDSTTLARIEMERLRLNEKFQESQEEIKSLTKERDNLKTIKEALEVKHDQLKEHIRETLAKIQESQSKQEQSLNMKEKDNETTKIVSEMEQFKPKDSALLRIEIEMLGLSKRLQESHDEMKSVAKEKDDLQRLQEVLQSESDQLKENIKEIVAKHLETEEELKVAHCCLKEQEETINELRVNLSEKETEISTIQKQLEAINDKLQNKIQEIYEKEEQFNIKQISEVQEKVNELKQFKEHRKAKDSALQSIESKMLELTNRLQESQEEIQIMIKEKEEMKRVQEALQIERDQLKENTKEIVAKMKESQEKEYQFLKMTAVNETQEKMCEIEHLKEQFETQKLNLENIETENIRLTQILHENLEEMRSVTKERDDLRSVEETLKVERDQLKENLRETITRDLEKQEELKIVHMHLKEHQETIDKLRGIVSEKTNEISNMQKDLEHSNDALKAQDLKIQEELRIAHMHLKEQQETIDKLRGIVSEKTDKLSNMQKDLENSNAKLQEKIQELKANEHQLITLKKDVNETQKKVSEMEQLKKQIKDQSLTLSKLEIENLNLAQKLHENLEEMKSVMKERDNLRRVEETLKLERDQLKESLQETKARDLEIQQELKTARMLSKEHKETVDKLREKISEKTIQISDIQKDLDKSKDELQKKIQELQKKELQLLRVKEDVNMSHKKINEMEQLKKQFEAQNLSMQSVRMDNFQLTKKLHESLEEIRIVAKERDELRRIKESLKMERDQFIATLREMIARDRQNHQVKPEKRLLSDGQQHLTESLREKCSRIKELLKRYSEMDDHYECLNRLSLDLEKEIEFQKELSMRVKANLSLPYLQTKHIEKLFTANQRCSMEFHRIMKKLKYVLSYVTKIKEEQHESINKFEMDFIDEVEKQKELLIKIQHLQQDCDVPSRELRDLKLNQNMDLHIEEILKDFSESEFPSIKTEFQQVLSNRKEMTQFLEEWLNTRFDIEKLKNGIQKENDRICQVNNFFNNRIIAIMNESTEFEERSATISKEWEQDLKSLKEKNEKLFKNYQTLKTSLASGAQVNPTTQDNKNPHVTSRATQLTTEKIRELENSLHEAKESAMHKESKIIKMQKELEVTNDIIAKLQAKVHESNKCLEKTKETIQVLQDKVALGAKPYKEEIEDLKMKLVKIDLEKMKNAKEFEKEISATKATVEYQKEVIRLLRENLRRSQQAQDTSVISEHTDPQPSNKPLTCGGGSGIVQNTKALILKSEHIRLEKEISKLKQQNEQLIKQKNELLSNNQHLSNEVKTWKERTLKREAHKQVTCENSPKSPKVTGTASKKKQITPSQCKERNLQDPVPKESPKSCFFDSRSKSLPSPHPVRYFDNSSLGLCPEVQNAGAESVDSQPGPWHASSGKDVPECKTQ
# UniProt Q8IX90: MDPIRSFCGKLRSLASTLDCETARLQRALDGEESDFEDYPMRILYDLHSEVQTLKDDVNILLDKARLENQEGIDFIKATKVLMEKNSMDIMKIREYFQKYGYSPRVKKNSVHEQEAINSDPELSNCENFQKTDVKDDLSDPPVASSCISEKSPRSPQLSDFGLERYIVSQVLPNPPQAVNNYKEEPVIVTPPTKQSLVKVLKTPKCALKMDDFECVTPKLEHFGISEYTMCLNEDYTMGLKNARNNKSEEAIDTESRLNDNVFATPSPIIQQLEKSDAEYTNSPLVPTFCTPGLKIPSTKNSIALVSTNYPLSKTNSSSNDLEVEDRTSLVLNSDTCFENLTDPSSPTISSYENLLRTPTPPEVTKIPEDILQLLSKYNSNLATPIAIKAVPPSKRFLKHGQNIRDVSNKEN
# These are yes or no findings as the source states them, for the method shown. Binding seen in cells or lysates may run through a third protein. Some entries that bind do so weakly or less than the wild type.
# Molecular target: linear ubiquitin chain assembly complex (LUBAC), ectopic (UniProt Q96EP0)
# Test: co-IP; mitotic HeLa cells transfected with LUBAC components; endogenous proteins detected by blot; which protein was precipitated is not told
row,binding,Substance
1,binds,endogenous CENP-E (from UniProt Q02224 1-2701)
2,no binding,kinetochore protein Ska3 (from UniProt Q8IX90 1-412)
